Experimental data from the supplement of paper PMC10849652.
The list shows a part of the results.

Chains of the proteins cited; added tags and fusions are not shown. Lines headed by an entry give the natural chain unless they say otherwise; changes in a name come on top.
UniProt Q2NKX8: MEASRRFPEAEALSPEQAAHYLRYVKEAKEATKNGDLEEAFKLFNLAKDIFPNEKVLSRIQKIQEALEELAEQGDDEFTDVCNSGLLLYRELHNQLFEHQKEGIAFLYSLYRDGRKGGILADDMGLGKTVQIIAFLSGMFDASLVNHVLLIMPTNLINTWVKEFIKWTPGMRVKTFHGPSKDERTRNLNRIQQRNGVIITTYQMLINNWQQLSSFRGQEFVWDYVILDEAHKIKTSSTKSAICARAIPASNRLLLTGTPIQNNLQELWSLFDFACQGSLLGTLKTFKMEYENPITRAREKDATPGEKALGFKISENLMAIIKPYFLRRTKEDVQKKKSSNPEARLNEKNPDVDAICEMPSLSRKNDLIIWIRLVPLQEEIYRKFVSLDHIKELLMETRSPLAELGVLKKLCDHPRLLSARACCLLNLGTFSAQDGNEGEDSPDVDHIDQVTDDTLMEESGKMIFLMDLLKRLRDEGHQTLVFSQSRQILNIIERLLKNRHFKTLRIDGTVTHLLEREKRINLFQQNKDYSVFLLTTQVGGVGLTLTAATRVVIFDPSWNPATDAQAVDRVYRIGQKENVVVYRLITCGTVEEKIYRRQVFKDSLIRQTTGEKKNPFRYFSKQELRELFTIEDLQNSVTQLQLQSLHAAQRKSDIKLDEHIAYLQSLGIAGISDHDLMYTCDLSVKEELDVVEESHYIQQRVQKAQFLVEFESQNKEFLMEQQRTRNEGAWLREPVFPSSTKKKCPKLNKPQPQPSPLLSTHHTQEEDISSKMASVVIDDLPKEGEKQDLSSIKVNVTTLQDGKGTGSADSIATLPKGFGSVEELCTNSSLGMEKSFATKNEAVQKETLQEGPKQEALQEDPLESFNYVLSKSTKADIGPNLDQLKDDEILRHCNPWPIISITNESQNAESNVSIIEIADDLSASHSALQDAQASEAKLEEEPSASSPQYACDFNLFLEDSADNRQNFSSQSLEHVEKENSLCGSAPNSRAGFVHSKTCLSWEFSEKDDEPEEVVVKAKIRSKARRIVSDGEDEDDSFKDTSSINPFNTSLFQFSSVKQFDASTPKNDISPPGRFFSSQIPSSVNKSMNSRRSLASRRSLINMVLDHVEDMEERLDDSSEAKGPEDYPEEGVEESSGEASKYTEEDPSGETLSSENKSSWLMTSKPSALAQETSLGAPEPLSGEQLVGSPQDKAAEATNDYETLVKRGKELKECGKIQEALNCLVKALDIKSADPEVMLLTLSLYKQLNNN
UniProt Q86YB8: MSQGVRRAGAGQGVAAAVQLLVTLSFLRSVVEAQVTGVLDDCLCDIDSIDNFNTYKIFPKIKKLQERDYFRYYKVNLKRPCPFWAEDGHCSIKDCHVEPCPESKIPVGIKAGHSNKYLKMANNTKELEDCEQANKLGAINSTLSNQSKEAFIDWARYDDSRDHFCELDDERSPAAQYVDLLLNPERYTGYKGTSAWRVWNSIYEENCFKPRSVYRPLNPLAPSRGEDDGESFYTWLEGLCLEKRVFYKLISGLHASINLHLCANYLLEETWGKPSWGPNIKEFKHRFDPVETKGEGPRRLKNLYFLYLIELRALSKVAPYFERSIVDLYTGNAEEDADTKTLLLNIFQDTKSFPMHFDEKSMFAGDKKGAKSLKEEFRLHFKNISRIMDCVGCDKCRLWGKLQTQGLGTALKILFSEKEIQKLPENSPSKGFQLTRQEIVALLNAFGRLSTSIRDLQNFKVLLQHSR
UniProt O94905: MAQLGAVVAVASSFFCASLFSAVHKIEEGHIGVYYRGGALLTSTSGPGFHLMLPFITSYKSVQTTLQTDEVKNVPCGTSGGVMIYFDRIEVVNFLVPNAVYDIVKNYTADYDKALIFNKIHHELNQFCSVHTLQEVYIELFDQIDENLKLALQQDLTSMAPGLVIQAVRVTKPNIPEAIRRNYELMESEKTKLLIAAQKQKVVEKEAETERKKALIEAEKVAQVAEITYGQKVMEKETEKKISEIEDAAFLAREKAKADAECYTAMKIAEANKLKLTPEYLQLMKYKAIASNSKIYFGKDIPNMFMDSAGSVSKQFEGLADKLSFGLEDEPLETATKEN
UniProt Q8TAG9: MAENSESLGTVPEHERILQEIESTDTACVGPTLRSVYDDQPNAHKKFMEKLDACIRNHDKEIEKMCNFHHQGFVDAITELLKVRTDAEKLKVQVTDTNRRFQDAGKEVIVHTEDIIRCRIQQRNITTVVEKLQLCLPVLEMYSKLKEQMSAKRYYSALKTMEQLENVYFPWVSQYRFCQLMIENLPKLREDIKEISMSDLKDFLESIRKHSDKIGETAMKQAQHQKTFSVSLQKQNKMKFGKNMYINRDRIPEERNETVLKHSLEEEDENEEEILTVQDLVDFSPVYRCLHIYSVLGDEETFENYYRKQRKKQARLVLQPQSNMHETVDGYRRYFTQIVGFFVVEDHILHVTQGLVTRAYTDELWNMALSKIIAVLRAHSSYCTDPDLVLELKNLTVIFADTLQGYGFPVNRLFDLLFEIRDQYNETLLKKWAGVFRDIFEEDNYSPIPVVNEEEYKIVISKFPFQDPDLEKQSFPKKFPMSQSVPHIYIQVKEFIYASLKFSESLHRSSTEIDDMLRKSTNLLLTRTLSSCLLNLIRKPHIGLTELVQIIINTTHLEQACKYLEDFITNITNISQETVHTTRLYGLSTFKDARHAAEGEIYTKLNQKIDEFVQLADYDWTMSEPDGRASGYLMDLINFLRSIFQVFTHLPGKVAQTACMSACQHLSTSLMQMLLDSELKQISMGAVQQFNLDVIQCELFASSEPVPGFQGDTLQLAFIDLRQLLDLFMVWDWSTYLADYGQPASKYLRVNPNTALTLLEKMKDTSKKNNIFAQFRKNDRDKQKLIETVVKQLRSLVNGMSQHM
UniProt Q7Z309: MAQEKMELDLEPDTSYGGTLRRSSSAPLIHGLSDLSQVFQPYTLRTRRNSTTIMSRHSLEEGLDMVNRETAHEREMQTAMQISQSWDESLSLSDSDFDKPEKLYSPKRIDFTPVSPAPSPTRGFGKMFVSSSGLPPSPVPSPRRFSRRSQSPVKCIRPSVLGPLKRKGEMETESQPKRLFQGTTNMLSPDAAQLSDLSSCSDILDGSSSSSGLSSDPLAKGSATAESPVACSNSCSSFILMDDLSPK
UniProt Q96DF8: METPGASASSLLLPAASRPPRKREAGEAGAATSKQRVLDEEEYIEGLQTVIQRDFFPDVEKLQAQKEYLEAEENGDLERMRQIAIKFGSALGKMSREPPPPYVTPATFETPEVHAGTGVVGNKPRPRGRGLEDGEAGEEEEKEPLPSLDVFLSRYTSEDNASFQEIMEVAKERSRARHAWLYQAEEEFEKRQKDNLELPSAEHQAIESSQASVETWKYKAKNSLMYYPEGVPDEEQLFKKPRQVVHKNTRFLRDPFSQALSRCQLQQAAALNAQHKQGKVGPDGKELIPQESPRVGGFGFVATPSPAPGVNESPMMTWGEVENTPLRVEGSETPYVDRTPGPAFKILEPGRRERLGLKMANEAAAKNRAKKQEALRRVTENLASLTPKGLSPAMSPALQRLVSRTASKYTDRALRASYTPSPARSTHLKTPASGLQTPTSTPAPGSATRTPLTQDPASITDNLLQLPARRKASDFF
UniProt Q96CS3: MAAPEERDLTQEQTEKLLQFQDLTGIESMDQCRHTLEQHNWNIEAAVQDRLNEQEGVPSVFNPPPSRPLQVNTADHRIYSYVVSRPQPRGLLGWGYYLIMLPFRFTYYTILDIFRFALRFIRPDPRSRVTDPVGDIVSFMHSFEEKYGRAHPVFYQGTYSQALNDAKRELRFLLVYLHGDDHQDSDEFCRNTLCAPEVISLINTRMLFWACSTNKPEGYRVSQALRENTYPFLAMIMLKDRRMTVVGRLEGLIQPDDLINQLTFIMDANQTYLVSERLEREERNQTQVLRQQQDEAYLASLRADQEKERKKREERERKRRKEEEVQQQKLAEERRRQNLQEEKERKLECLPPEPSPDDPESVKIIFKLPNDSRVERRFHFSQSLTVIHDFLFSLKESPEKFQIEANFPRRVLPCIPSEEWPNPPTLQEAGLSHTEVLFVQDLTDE
UniProt Q9NRY5: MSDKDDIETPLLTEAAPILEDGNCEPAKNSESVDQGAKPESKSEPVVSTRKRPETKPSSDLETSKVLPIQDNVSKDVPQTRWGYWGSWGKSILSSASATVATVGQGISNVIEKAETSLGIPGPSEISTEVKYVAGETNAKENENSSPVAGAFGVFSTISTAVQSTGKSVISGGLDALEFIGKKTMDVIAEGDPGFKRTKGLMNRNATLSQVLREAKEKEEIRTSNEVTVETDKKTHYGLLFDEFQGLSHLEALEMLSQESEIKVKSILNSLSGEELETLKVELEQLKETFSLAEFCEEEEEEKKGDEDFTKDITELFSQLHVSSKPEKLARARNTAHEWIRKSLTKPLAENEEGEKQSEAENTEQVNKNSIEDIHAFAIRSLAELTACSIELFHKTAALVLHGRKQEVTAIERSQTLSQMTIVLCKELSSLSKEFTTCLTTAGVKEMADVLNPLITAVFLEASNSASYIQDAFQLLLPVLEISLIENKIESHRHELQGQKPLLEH
UniProt Q03468, whole entry, looked up: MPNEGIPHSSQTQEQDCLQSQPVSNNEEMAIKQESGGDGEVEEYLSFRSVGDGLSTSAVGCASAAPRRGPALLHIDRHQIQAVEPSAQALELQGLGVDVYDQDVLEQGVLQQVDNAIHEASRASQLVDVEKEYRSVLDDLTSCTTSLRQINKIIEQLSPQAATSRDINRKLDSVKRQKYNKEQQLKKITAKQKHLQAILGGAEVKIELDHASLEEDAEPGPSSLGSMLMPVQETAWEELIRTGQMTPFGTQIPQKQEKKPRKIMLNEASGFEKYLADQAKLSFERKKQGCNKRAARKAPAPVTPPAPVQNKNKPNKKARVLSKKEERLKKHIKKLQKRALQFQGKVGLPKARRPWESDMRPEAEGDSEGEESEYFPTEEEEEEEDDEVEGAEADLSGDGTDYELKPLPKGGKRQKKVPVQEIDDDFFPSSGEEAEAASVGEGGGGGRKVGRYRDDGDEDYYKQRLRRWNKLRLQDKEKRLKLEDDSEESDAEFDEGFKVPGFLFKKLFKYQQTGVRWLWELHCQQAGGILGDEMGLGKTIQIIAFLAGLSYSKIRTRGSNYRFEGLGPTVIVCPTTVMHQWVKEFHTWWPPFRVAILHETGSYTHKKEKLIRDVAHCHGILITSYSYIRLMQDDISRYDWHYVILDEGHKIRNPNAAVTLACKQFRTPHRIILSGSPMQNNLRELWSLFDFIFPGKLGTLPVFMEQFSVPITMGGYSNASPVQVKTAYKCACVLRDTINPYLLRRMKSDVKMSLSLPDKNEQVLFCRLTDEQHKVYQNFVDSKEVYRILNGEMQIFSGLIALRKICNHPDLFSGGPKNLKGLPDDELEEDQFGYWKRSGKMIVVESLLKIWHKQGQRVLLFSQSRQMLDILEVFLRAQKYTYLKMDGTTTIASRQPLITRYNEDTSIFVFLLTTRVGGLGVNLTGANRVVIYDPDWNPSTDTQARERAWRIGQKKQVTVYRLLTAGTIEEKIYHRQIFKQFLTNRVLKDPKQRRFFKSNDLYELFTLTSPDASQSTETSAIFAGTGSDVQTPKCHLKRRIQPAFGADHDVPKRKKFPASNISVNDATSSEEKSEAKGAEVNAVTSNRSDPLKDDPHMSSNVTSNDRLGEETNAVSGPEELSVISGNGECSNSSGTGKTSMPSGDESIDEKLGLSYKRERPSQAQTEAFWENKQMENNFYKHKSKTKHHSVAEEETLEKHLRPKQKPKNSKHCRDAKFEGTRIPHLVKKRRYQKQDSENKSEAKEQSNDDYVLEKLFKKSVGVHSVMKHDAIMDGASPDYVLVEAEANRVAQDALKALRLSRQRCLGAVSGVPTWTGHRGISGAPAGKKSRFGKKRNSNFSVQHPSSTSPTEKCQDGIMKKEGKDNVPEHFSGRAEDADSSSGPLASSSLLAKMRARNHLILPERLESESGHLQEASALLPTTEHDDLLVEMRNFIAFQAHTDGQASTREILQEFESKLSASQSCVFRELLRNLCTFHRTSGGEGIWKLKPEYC
UniProt O75616: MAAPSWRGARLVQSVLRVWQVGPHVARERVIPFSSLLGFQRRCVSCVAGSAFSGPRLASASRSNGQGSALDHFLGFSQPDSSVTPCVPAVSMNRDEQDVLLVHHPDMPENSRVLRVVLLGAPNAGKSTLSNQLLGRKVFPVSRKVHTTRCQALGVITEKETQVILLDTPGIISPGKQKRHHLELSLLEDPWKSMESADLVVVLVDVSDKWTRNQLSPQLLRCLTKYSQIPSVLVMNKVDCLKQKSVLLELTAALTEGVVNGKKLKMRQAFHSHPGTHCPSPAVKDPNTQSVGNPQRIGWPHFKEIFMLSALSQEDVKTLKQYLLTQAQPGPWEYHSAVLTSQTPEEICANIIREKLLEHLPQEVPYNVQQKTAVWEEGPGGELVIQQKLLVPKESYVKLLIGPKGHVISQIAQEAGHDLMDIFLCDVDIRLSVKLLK

Legend:
Assay in all cases: log2 fold change, soluble protein after heating vs DMSO (PISA); higher = thermal stabilisation; K562 cells, 10 uM, 30 min; active = over 0.2 and 3.5 SD of the protein, either way, in both replicates (recomputed)
[1] = compound: CS(=O)(=O)c1ccc(-c2cnc(N)c(C(=O)Nc3ccccc3)n2)cc1
Outline: (§1)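 Aliquots of K562 cells (2×10^6 cells/mL) treated with 10 μM compound for 30 min were heated for 3 min over 48°C-58°C. After pooling and extraction in PBS with 0.5% NP-40 at 4°C, soluble protein from a 21,000xg, 90 min spin was quantified by TMTpro 16plex LC-MS/MS with channel sums equalised. Thermal stability is expressed against control samples, from duplicates, as a log2 fold change.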

crizotinib = compound: C[C@@H](Oc1cc(-c2cnn(C3CCNCC3)c2)cnc1N)c1c(Cl)ccc(F)c1Cl [crizotinib]
Outline: as §1

[2] = compound: C[C@@H]1COCCN1C2=NC(=NC(=C2)C3(CC3)S(=O)(=O)C)C4=C5C=CNC5=CC=C4
Outline: as §1

[3] = compound: C[C@H](C1=CC=C(C=C1)C(=O)NC2=C3C=CNC3=NC=C2)N
Outline: as §1

duvelisib = compound: C[C@H](Nc1ncnc2nc[nH]c12)c1cc2cccc(Cl)c2c(=O)n1-c1ccccc1 [duvelisib]
Outline: as §1

tozasertib = compound: Cc1cc(Nc2cc(N3CCN(C)CC3)nc(Sc3ccc(NC(=O)C4CC4)cc3)n2)n[nH]1 [tozasertib]
Outline: as §1

[4] = compound: Cc1cc(SCc2sc(-c3ccc(C(F)(F)F)cc3)nc2C)ccc1OCC(=O)O
Outline: as §1

doramapimod = compound: Cc1ccc(-n2nc(C(C)(C)C)cc2NC(=O)Nc2ccc(OCCN3CCOCC3)c3ccccc23)cc1 [doramapimod]
Outline: as §1

ispinesib = compound: Cc1ccc(C(=O)N(CCCN)[C@@H](c2nc3cc(Cl)ccc3c(=O)n2Cc2ccccc2)C(C)C)cc1 [ispinesib]
Outline: as §1

bafetinib = compound: Cc1ccc(NC(=O)c2ccc(CN3CC[C@H](N(C)C)C3)c(C(F)(F)F)c2)cc1Nc1nccc(-c2cncnc2)n1 [bafetinib]
Outline: as §1

nilotinib = compound: Cc1cn(-c2cc(NC(=O)c3ccc(C)c(Nc4nccc(-c5cccnc5)n4)c3)cc(C(F)(F)F)c2)cn1 [nilotinib]
Outline: as §1

[5] = compound: Cc1nc(Nc2n[nH]c3c2CN(C(=O)N[C@H](CN(C)C)c2ccccc2)C3(C)C)c2sccc2n1
Outline: as §1

dasatinib = compound: Cc1nc(Nc2ncc(C(=O)Nc3c(C)cccc3Cl)s2)cc(N2CCN(CCO)CC2)n1 [dasatinib]
Outline: as §1

[6] = compound: Cc1ncc(-c2ccnc(Nc3ccc(S(C)(=O)=O)cc3)n2)n1C(C)C
Outline: as §1

[7] = compound: Cn1cc(-c2ccc3c(c2)CCN3C(=O)Cc2cccc(C(F)(F)F)c2)c2c(N)ncnc21
Outline: as §1

[8] = compound: Cn1cc(-c2ccc3nnc(C(F)(F)c4ccc5ncccc5c4)n3n2)cn1
Outline: as §1

tipifarnib = compound: Cn1cncc1[C@@](N)(c1ccc(Cl)cc1)c1ccc2c(c1)c(-c1cccc(Cl)c1)cc(=O)n2C [tipifarnib]
Outline: as §1

mubritinib = compound: FC(F)(F)c1ccc(/C=C/c2nc(COc3ccc(CCCCn4ccnn4)cc3)co2)cc1 [mubritinib]
Outline: as §1

gandotinib = compound: Cc1cc(Nc2cc(CN3CCOCC3)c3nc(C)c(Cc4ccc(Cl)cc4F)n3n2)n[nH]1 [gandotinib]
Outline: as §1

[9] = compound: Cc1cccc(CC(=O)N2CCc3c2ccc(-c2cn(C)c4ncnc(N)c24)c3F)n1
Outline: as §1

Row | Target | log2 fold change [1] | log2 fold change (crizotinib) | log2 fold change [2] | log2 fold change [3] | log2 fold change (duvelisib) | log2 fold change (tozasertib) | log2 fold change [4] | log2 fold change (doramapimod) | log2 fold change (ispinesib) | log2 fold change (bafetinib) | log2 fold change (nilotinib) | log2 fold change [5] | log2 fold change (dasatinib) | log2 fold change [6] | log2 fold change [7] | log2 fold change [8] | log2 fold change (tipifarnib) | log2 fold change (mubritinib) | log2 fold change (gandotinib) | log2 fold change [9]
1 | EPHA6 (UniProt Q9UF33) | inactive: 0.196 | inactive: 0.324 | inactive: -0.002 | inactive: 0.524 | inactive: 0.089 | inactive: -0.113 | inactive: -0.017 | inactive: 0.288 | inactive: -0.517 | inactive: -0.379 | inactive: -0.039 | inactive: 0.122 | inactive: 0.059 | inactive: 0.232 | inactive: -0.022 | inactive: -0.064 | inactive: 0.363 | inactive: -0.055 |  | 
2 | EXOC8 (UniProt Q8IYI6) | inactive: -0.062 | active: -0.32 | inactive: 0.109 | inactive: 0.053 |  |  | inactive: 0.063 | inactive: 0.007 | active: -0.364 | inactive: -0.081 | inactive: -0.054 | inactive: -0.137 | inactive: -0.1 | inactive: -0.012 | inactive: -0.015 | inactive: 0.028 | inactive: -0.038 | inactive: 0.039 | inactive: -0.203 | inactive: 0.071
3 | ERCC6L (UniProt Q2NKX8) | inactive: 0.107 | inactive: -0.144 | inactive: -0.159 | inactive: 0.304 |  | inactive: 0.075 |  | inactive: 0.238 | inactive: -0.201 | inactive: -0.025 | inactive: -0.153 | inactive: -0.263 |  | inactive: 0.086 | inactive: -0.142 | inactive: -0.219 | inactive: -0.034 |  | inactive: 0.072 | inactive: -0.116
4 | ERO1B (UniProt Q86YB8) | inactive: 0.009 | inactive: 0.034 | inactive: 0.019 | inactive: 0.215 | inactive: -0.212 |  | inactive: 0.116 | inactive: 0.076 |  | inactive: -0.009 | inactive: -0.099 | inactive: -0.061 | inactive: 0.196 | inactive: -0.027 | inactive: 0.009 |  | inactive: 0.012 | inactive: 0.079 |  | 
5 | ERLIN2 (UniProt O94905) | inactive: -0.017 | inactive: -0.034 | inactive: -0.167 | inactive: 0.068 |  |  | inactive: 0.155 | inactive: 0.057 | active: -0.251 | inactive: 0.039 | inactive: -0.107 | inactive: 0.012 | inactive: -0.023 | inactive: 0.023 | inactive: -0.104 | inactive: 0 | inactive: 0.024 | inactive: -0.049 | inactive: -0.044 | inactive: 0.032
6 | EXOC6 (UniProt Q8TAG9) | inactive: 0.001 | inactive: -0.206 | inactive: -0.038 | inactive: 0.033 |  |  | inactive: 0.1 | inactive: 0.02 | active: -0.363 | inactive: -0.013 | inactive: -0.013 | inactive: -0.196 | inactive: -0.22 | inactive: -0.013 | inactive: 0.042 | inactive: 0.028 | inactive: -0.076 | inactive: 0.07 | inactive: -0.098 | inactive: 0.036
7 | EXOC1 (UniProt Q9NV70) | inactive: -0.036 | inactive: -0.336 | inactive: -0.007 | inactive: 0.174 |  |  | inactive: 0.067 | inactive: 0.138 | active: -0.472 | inactive: 0.061 | inactive: -0.034 | inactive: -0.069 | inactive: -0.126 | inactive: -0.051 | inactive: -0.008 | inactive: 0.026 | inactive: -0.098 | inactive: 0.032 | inactive: -0.179 | inactive: 0.025
8 | FAM122B isoform 3 (UniProt Q7Z309) | inactive: -0.072 | inactive: -0.004 | inactive: 0.131 | inactive: -0.132 | inactive: 0.133 | inactive: -0.085 | inactive: -0.096 | inactive: 0.026 | inactive: 0.063 | inactive: -0.05 | inactive: 0.162 | inactive: -0.281 | inactive: -0.016 | inactive: 0.059 | inactive: 0.05 | inactive: -0.047 |  | inactive: -0.072 | inactive: 0.046 | inactive: 0.1
9 | FADS3 (UniProt Q9Y5Q0) | inactive: 0.042 | inactive: -0.237 | inactive: 0.198 | inactive: 0.055 |  |  | inactive: 0.073 | inactive: -0.013 | active: -0.311 | inactive: -0.11 | inactive: 0.108 | inactive: -0.012 | inactive: -0.109 | inactive: -0.013 | inactive: 0.034 | inactive: -0.037 | inactive: -0.033 | inactive: 0.059 | inactive: -0.058 | inactive: 0.044
10 | ESS2 (UniProt Q96DF8) | inactive: -0.081 | inactive: -0.079 | inactive: 0.016 | inactive: 0.031 |  |  | inactive: -0.044 | inactive: 0.02 | inactive: -0.053 | inactive: -0.186 | inactive: 0.013 | inactive: -0.048 | inactive: 0.011 | inactive: 0.019 | inactive: -0.061 | inactive: -0.081 | inactive: 0.038 | inactive: 0.008 | inactive: 0.004 | inactive: -0.07
11 | FAF2 (UniProt Q96CS3) | inactive: 0.049 | inactive: -0.056 | inactive: 0.042 | inactive: 0.049 |  |  | inactive: 0.059 | inactive: 0.023 | inactive: -0.011 | inactive: -0.058 | inactive: -0.042 | inactive: -0.049 | inactive: -0.075 | inactive: 0 | inactive: 0.017 | inactive: -0.04 | inactive: -0.021 | inactive: -0.011 | inactive: 0.022 | inactive: -0.022
12 | FAM114A2 (UniProt Q9NRY5) | inactive: -0.005 | inactive: -0.197 | inactive: 0.026 | inactive: -0.026 |  |  | inactive: 0.011 | inactive: -0.052 | inactive: -0.096 | inactive: -0.094 | inactive: -0.035 | inactive: -0.032 | inactive: -0.083 | inactive: 0.004 | inactive: 0.001 | inactive: 0.019 | inactive: -0.002 | inactive: 0.055 | inactive: -0.06 | inactive: 0.025
13 | ETNK1 (UniProt Q9HBU6) | inactive: -0.006 | inactive: -0.022 | inactive: 0.088 | inactive: -0.032 |  |  | inactive: 0.118 | inactive: 0.001 | inactive: 0.059 | inactive: -0.042 | inactive: -0.043 | inactive: 0.08 | inactive: -0.07 | inactive: 0.06 | inactive: 0.026 | inactive: 0.008 | inactive: -0.183 | inactive: 0.036 | inactive: -0.057 | inactive: 0.037
14 | F5 (UniProt P12259) | inactive: 0.081 | inactive: 0.257 | inactive: -0.064 | inactive: 0.057 |  |  | inactive: 0.223 | inactive: 0.019 | inactive: 0.055 | inactive: -0.076 | inactive: 0.021 | inactive: 0.019 | inactive: 0.05 | inactive: 0.023 | inactive: 0.072 | inactive: 0.111 | inactive: 0.153 | inactive: -0.089 | inactive: 0.023 | inactive: -0.02
15 | ERCC2 (UniProt P18074) | inactive: 0.011 | inactive: 0.059 | inactive: -0.046 | inactive: -0.013 |  |  | inactive: 0.08 | inactive: 0.031 | inactive: -0.045 | inactive: 0.094 | inactive: -0.014 | inactive: -0.175 | inactive: -0.185 | inactive: -0.022 | inactive: 0.05 | inactive: 0.01 | inactive: -0.062 | inactive: 0.114 | inactive: -0.035 | inactive: 0.061
16 | FAM160B1 (UniProt Q5W0V3) | inactive: 0.015 | inactive: -0.119 | inactive: 0.06 | inactive: -0.003 |  |  | inactive: 0.049 | inactive: -0.018 | inactive: -0.125 | inactive: -0.018 | inactive: -0.032 | inactive: -0.049 | inactive: -0.082 | inactive: -0.014 | inactive: -0.053 | inactive: -0.039 | inactive: 0.115 | inactive: 0.023 | inactive: -0.217 | inactive: 0.023
17 | ERCC6 (UniProt Q03468) | inactive: -0.12 | inactive: 0.061 | inactive: 0.011 | inactive: -0.127 |  |  | inactive: -0.103 | inactive: 0.053 | inactive: 0.152 | active: -0.775 | inactive: 0.041 | inactive: -0.087 | inactive: -0.043 | inactive: -0.021 | inactive: 0.129 | inactive: -0.094 | inactive: 0.019 | inactive: 0.059 | inactive: 0.017 | inactive: -0.016
18 | ERAL1 (UniProt O75616) | inactive: -0.174 | inactive: -0.142 | inactive: -0.437 | inactive: -0.159 | inactive: -0.023 |  | inactive: 0.016 | inactive: 0.083 |  | inactive: 0.249 | inactive: 0.093 | inactive: -0.049 | inactive: 0.101 | inactive: -0.078 | inactive: 0.272 |  | inactive: 0 | inactive: -0.041 |  | 

A few values from the results shown.
Value for ERCC6L (UniProt Q2NKX8) under log2 fold change (tozasertib): inactive: 0.075
Value for FAM114A2 (UniProt Q9NRY5) under log2 fold change [5]: inactive: -0.032
